{"source": "paper PMC6966871", "origin": "cited, not measured here", "system": "lung adenocarcinoma patient-derived xenograft (PDX)", "settings": "particularly in tumors with high expression of c-MET; cited from earlier work"}
{"compound": "O=C(Nc1ccc(Oc2ccnc3c2CCN3)c(F)c1)c1c[nH]cc(-c2ccc(F)cc2)c1=O", "values": [{"measurement": "therapeutic effect on lung adenocarcinoma PDX models", "result": "promising therapeutic effects"}]}
